According to paper PMC12093383, “Protoporphyrin IX-Derived Ruthenium(II) Complexes for Photodynamic Therapy in Gastric Cancer Cells” (Inorganic Chemistry, 2025):

assay: Singlet oxygen formation quantum yield, DPBF trap; conditions: DMSO, white light, relative to verteporfin, N = 3

| Structure (SMILES) | ΦΔ 1O2 quantum yield |
| --- | --- |
| C=Cc1c(C)c2cc3nc(cc4[nH]c(cc5nc(cc1[nH]2)C(C)=C5CCC(=O)OC)c(CCC(=O)OC)c4C)C1(C)C3=CCC(C(=O)OC)=C1C(=O)OC (stereo not drawn) [3A] | 46 ± 2.082% |
| C=Cc1c(C)c2cc3nc(cc4[nH]c(cc5nc(cc1[nH]2)C1(C)C5=CCC(C(=O)OC)=C1C(=O)OC)c(C)c4CCC(=O)OC)C(CCC(=O)OC)=C3C (stereo not drawn) [3B] | 42 ± 2.500% |
| C=Cc1c(C)c2cc3nc(cc4[nH]c(cc5nc(cc1[nH]2)C(C)=C5CCC(=O)OCc1ccccc1)c(CCC(=O)OCc1ccccc1)c4C)C1(C)C3=CCC(C(=O)OC)=C1C(=O)OC (stereo not drawn) [4A] | 34 ± 1.041% |
| C=Cc1c(C)c2cc3nc(cc4[nH]c(cc5nc(cc1[nH]2)C1(C)C5=CCC(C(=O)OC)=C1C(=O)OC)c(C)c4CCC(=O)OCc1ccccc1)C(CCC(=O)OCc1ccccc1)=C3C (stereo not drawn) [4B] | 33 ± 2.517% |
| C=CC1=C(C)c2cc3[nH]c(cc4nc(cc5[nH]c(cc1n2)c(C)c5CCC(=O)OC)C(CCC(=O)OC)=C4C)c(C)c3C=C [compound 1] | 34 ± 0.764% |
| C=CC1=C(C)c2cc3[nH]c(cc4nc(cc5[nH]c(cc1n2)c(C)c5CCC(=O)OCc1ccccc1)C(CCC(=O)OCc1ccccc1)=C4C)c(C)c3C=C [compound 2] | 34 ± 1.528% |
